# Data from article PMC6896172, “Successful Targeting of the Warburg Effect in Prostate Cancer by Glucose-Conjugated 1,4-Naphthoquinones” (Cancers, 2019).
# The source gives many values for each of these; only a part stands here.
# System: 22Rv1 cells
# Experiment: Global proteome analysis (LC-MS/MS, DIA) of differentially expressed proteins
# Assay type: cell-based, human
# Experimental: 22Rv1 cells were seeded in T75 culture bottles (4 × 10^6 cells/bottle in 20 mL/bottle), treated for 48 h with the 5 µM of compound 11 or vehicle (DMSO), harvested by scratching, washed twice with ice-cold PBS and flash-frozen. Cells were lysed and sonicated. The protein extracts were then heat-denaturated, reduced, alkylated and digested by trypsin. Peptides were chromatographically separated using full recovery autosampler vials and a nano-UPLC system (Acquity, Waters Corporation, Milford, MS, USA), coupled via electrospray ionization (ESI) to a tandem mass spectrometer equipped with a quadrupole and an orbitrap (QExactive, Thermo Fisher Scientific, Bremen, Germany), using MS/MS mode in data dependent acquisition (DDA) and data independent acquisition (DIA). The peptides, analyzed with DDA-LC-MS/MS, were identified with the search engine Sequest, integrated in the Proteome Discoverer software version 2.0 (Thermo Fischer Scientific) using the human Uniprot protein database (EMBL; Hinxton Cambridge, UK, release December 2018). […] For the details of sample preparation and proceeding, data acquisition and analysis see the Supplementary information. […]
# serum (FBS, Invitrogen) and 1% penicillin/streptomycin (Invitrogen)). […]
# Cell lines were lysed in 100 mM triethylammonium bicarbonate and 1% w/v sodium deoxycholate buffer followed by probe sonication to destroy polynucleotides and heat induce protein denaturing at 99 °C for 5 min. Protein concentrations were estimated with a bicinchonic acid (BCA) protein assay (Thermo Fisher Scientific, Bremen, Germany). 20 µg of protein were reduced in presence of 10 mM dithiotreithol (Sigma Aldrich) for 30 min at 60 °C followed by cysteine alkylation with 20 mM iodo acetamide (Sigma Aldrich) for 30 min at 37 °C in the dark and enzymatic degradation with sequencing grade trypsin (Promega) over night at 37 °C. Digestion was quenched with 1% formic acid (FA), precipitated sodium deoxycholate removed by centrifugation for 5 min at 14,000 g and the supernatant was dried in a vacuum centrifuge.
# LC-MS/MS in Data Dependent and Data Independent Mode
# Samples were resuspended in 0.1% FA and transferred into a full recovery autosampler vial (Waters). Chromatographic separation was achieved on a nano -UPLC system (Acquity, Waters Corporation, Milford, MS, USA) with a two-buffer-system (buffer A: 0.1% FA in water, buffer B:
# 0.1% FA in Acetonitrile (ACN), both at pH = 3). Attached to the UPLC was a reversed -phase peptide trapping column (Symmetry C18, 180 µm × 20 mm, 100 Å pore size, 5 µm particle size) for desalting, followed by a reversed-phase capillary separation of the tryptic peptides (BEH C18; 75 µm × 200 mm, 130 Å pore size, 1.7 µm particle size), using a 60 min gradient with increasing ACN concentration from 2–30% ACN. The eluting peptides were analyzed on a quadrupole-orbitrap mass spectrometer (QExactive, Thermo Fisher Scientific, Bremen, Germany) in data dependent acquisition (DDA) and data independent acquisition (DIA) for quantification.
# In DDA mode, one replicate of each cell line was randomly chosen and 1 µg per sample was used per LC-MS/MS run to build a reference spectral library used for data extraction of samples acquired in DIA mode. For DDA, the 12 most intense ions per precursor scan (1 × 10 6 ions, 70,000 Resolution, 120 ms fill time) were analyzed by MS/MS (HCD at 25 normalized collision energy, 1 × 105 ions, 17,500 Resolution, 50 ms fill time) in a range of 400–1300 m/z. A dynamic precursor exclusion of 20 s was used. For DIA, 1 µg of each sample was analyzed using a 30 sequential 20 Da fixed window method covering the mass range from 400 –1000 m/z. Per cycle, 2 precursor scans (1 × […]
# 28 normalized collision energy, 1 × 106 ions, 17,500 Resolution, 50 ms fill time) were performed.
# After the first precursor scan, 15 MS/MS scans were performed covering the precursor mass range from 400–700 m/z followed by the second precursor scan and another 15 MS/MS scans ranging from […]
# LC-MS/MS Data Processing and Analysis […]
compound,measurement,setting,value
CC1(C)OC2OC(C(O)COC3=CC(=O)c4cccc(O)c4C3=O)C(O)C2O1 (stereo not drawn) [Compound 11],Fold change (treated / control),protein ETFB_HUMAN (P38117),0.8554
same,Fold change (treated / control),protein F111B_HUMAN (Q6SJ93),0.3955
same,Fold change (treated / control),protein FABD_HUMAN (Q8IVS2),0.6979
same,Fold change (treated / control),protein FAKD4_HUMAN (Q969Z0),0.7242
same,Fold change (treated / control),protein FAS_HUMAN (P49327),0.6765
same,Fold change (treated / control),protein FLOT2_HUMAN (Q14254),0.7567
same,Fold change (treated / control),protein G3BP1_HUMAN (Q13283),0.8044
same,Fold change (treated / control),protein GCDH_HUMAN (Q92947),0.7269
same,Fold change (treated / control),protein GHC1_HUMAN (Q9H936),0.7861
same,Fold change (treated / control),protein GL8D1_HUMAN (Q68CQ7),0.6726
same,Fold change (treated / control),protein GLYC_HUMAN (P34896),0.7075
same,Fold change (treated / control),protein GLYR1_HUMAN (Q49A26),0.5273
same,Fold change (treated / control),protein GTF2I_HUMAN (P78347),0.691
same,Fold change (treated / control),protein GTPB6_HUMAN (O43824),0.5255
same,Fold change (treated / control),protein GUAA_HUMAN (P49915),0.7668
same,Fold change (treated / control),protein H4_HUMAN (P62805),0.5561
same,Fold change (treated / control),protein HDHD5_HUMAN (Q9BXW7),0.4429
same,Fold change (treated / control),protein HEM6_HUMAN (P36551),0.7705
same,Fold change (treated / control),protein HIC2_HUMAN (Q96JB3),0.3552
same,Fold change (treated / control),protein HMGB2_HUMAN (P26583),0.8616
same,Fold change (treated / control),protein HNRH1_HUMAN (P31943),0.7863
same,Fold change (treated / control),protein HP1B3_HUMAN (Q5SSJ5),0.7171
same,Fold change (treated / control),protein HPBP1_HUMAN (Q9NZL4),0.344
same,Fold change (treated / control),protein IDH3A_HUMAN (P50213),0.7993
same,Fold change (treated / control),protein IDHP_HUMAN (P48735),0.8606
same,Fold change (treated / control),protein IF2G_HUMAN (P41091),0.7409
same,Fold change (treated / control),protein IPO4_HUMAN (Q8TEX9),0.5203
same,Fold change (treated / control),protein K2C7_HUMAN (P08729),0.6774
same,Fold change (treated / control),protein KAD2_HUMAN (P54819),0.8046
same,Fold change (treated / control),protein KAP0_HUMAN (P10644),0.721
same,Fold change (treated / control),protein KDM2A_HUMAN (Q9Y2K7),0.3972
same,Fold change (treated / control),protein KIF4A_HUMAN (O95239),0.5585
same,Fold change (treated / control),protein KITH_HUMAN (P04183),0.3876
same,Fold change (treated / control),protein LARP4_HUMAN (Q71RC2),0.5045
same,Fold change (treated / control),protein LMAN2_HUMAN (Q12907),0.7375
same,Fold change (treated / control),protein LMNB1_HUMAN (P20700),0.8148
same,Fold change (treated / control),protein MA1A2_HUMAN (O60476),0.3448
same,Fold change (treated / control),protein MAGT1_HUMAN (Q9H0U3),0.4348
same,Fold change (treated / control),protein MBB1A_HUMAN (Q9BQG0),0.4544
same,Fold change (treated / control),protein MBD1_HUMAN (Q9UIS9),0.3439
same,Fold change (treated / control),protein MBOA7_HUMAN (Q96N66),0.7651
same,Fold change (treated / control),protein MCCB_HUMAN (Q9HCC0),0.8303
same,Fold change (treated / control),protein MCM2_HUMAN (P49736),0.5572
same,Fold change (treated / control),protein MCP_HUMAN (P15529),0.1636
same,Fold change (treated / control),protein MET7A_HUMAN (Q9H8H3),0.7217
same,Fold change (treated / control),protein MIEN1_HUMAN (Q9BRT3),0.6775
same,Fold change (treated / control),protein MMSA_HUMAN (Q02252),0.7267
same,Fold change (treated / control),protein MOFA1_HUMAN (Q9Y605),0.5421
same,Fold change (treated / control),protein MPPA_HUMAN (Q10713),0.8249
same,Fold change (treated / control),protein MPPB_HUMAN (O75439),0.7358
same,Fold change (treated / control),protein MYCBP_HUMAN (Q99417),0.6859
same,Fold change (treated / control),protein MZT1_HUMAN (Q08AG7),0.7035
same,Fold change (treated / control),protein NASP_HUMAN (P49321),0.7313
same,Fold change (treated / control),protein NDUA2_HUMAN (O43678),0.4769
same,Fold change (treated / control),protein NDUA4_HUMAN (O00483),0.4541
same,Fold change (treated / control),protein NDUA9_HUMAN (Q16795),0.7923
same,Fold change (treated / control),protein NDUAD_HUMAN (Q9P0J0),0.7567
same,Fold change (treated / control),protein NDUB4_HUMAN (O95168),0.7762
same,Fold change (treated / control),protein NDUB8_HUMAN (O95169),0.7141
same,Fold change (treated / control),protein NDUBA_HUMAN (O96000),0.7553
same,Fold change (treated / control),protein NDUS1_HUMAN (P28331),0.5206
same,Fold change (treated / control),protein NDUS2_HUMAN (O75306),0.6782
same,Fold change (treated / control),protein NDUS8_HUMAN (O00217),0.6991
same,Fold change (treated / control),protein NEP1_HUMAN (Q92979),0.7224
same,Fold change (treated / control),protein NNTM_HUMAN (Q13423),0.849
same,Fold change (treated / control),protein NOG1_HUMAN (Q9BZE4),0.5546
same,Fold change (treated / control),protein NOP2_HUMAN (P46087),0.8208
same,Fold change (treated / control),protein NOP56_HUMAN (O00567),0.7231
same,Fold change (treated / control),protein NPM3_HUMAN (O75607),0.7477
same,Fold change (treated / control),protein NSA2_HUMAN (O95478),0.4343
same,Fold change (treated / control),protein NU107_HUMAN (P57740),0.7773
same,Fold change (treated / control),protein NUCG_HUMAN (Q14249),0.1894
same,Fold change (treated / control),protein NUP50_HUMAN (Q9UKX7),0.8004
same,Fold change (treated / control),protein NUPL2_HUMAN (O15504),0.7328
same,Fold change (treated / control),protein ODPX_HUMAN (O00330),0.7973
same,Fold change (treated / control),protein P5CR2_HUMAN (Q96C36),0.455
same,Fold change (treated / control),protein P5CS_HUMAN (P54886),0.7381
same,Fold change (treated / control),protein P66B_HUMAN (Q8WXI9),0.6724
same,Fold change (treated / control),protein PABP1_HUMAN (P11940),0.8395
same,Fold change (treated / control),protein PAIRB_HUMAN (Q8NC51),0.6802
same,Fold change (treated / control),protein PARP1_HUMAN (P09874),0.852
same,Fold change (treated / control),protein PB1_HUMAN (Q86U86),0.6737
same,Fold change (treated / control),protein PCBP1_HUMAN (Q15365),0.8148
same,Fold change (treated / control),protein PCBP2_HUMAN (Q15366),0.6786
same,Fold change (treated / control),protein PDIA4_HUMAN (P13667),0.8249
same,Fold change (treated / control),protein PDIP3_HUMAN (Q9BY77),0.4965
same,Fold change (treated / control),protein PDXD1_HUMAN (Q6P996),0.6923
same,Fold change (treated / control),protein PESC_HUMAN (O00541),0.4845
same,Fold change (treated / control),protein PHF5A_HUMAN (Q7RTV0),0.3475
same,Fold change (treated / control),protein PIN1_HUMAN (Q13526),0.8459
same,Fold change (treated / control),protein PLAK_HUMAN (P14923),0.7459
same,Fold change (treated / control),protein PLEC_HUMAN (Q15149),0.7645
same,Fold change (treated / control),protein PLPP6_HUMAN (Q8IY26),0.6855
same,Fold change (treated / control),protein PMYT1_HUMAN (Q99640),0.2195
same,Fold change (treated / control),protein PNPT1_HUMAN (Q8TCS8),0.8319
same,Fold change (treated / control),protein PO210_HUMAN (Q8TEM1),0.7212
same,Fold change (treated / control),protein PPIC_HUMAN (P45877),0.8138
same,Fold change (treated / control),protein PR38A_HUMAN (Q8NAV1),0.7148
same,Fold change (treated / control),protein PRKDC_HUMAN (P78527),0.7563
same,Fold change (treated / control),protein PRP19_HUMAN (Q9UMS4),0.7043
same,Fold change (treated / control),protein PRP31_HUMAN (Q8WWY3),0.7933
same,Fold change (treated / control),protein PSPC1_HUMAN (Q8WXF1),0.7106
